This note sets out measurements from publication doi:10.1101/2021.09.29.462476.

By UniProt entry, the sequences of proteins in these tests, tags left out.
UniProt Q5T5D7: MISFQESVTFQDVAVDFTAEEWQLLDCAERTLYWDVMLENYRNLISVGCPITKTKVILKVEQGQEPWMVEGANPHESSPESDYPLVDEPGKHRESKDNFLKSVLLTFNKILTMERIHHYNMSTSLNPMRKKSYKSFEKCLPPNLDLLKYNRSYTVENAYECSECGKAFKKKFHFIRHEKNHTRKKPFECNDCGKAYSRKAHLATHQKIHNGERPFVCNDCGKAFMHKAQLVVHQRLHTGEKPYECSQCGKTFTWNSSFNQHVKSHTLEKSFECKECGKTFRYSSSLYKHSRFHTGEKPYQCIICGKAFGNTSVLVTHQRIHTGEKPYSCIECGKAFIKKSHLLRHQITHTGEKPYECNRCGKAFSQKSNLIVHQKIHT

Results are given in words; binding and its absence hold for the method and conditions named. In cells and extracts the contact can be indirect. A yes stands for co-enrichment or nearness to the bait. Other partners may have been found.

The target in the assay is GFP-Znf684 (human) (UniProt Q5T5D7). Kind of assay: affinity purification with mass spectrometry.

B1: Pabpn1 (protein, UniProt Q86U42 1-306)
chain: MAAAAAAAAAAGAAGGRGSGPGRRRHLVPGAGGEAGEGAPGGAGDYGNGLESEELEPEELLLEPEPEPEPEEEPPRPRAPPGAPGPGPGSGAPGSQEEEEEPGLVEGDPGDGAIEDPELEAIKARVREMEEEAEKLKELQNEVEKQMNMSPPPGNAGPVIMSIEEKMEADARSIYVGNVDYGATAEELEAHFHGCGSVNRVTILCDKFSGHPKGFAYIEFSDKESVRTSLALDESLFRGRQIKVIPKRTNRPGISTTDRGFPRARYRARTTNYNSSRSRFYSGFNSRPRGRVYRGRARATSWYSPY
With B1, the binding entry is reported as “binds”.
